Results are given in words; binding and its absence hold for the method and conditions named. Binding seen in cells or lysates may run through a third protein. Some results given as binding are weak or reduced against the parent protein; the word gives no strength.
T1: family with sequence similarity 64, member A (FAM64A) (human) (UniProt Q9BSJ6)
T1 sequence: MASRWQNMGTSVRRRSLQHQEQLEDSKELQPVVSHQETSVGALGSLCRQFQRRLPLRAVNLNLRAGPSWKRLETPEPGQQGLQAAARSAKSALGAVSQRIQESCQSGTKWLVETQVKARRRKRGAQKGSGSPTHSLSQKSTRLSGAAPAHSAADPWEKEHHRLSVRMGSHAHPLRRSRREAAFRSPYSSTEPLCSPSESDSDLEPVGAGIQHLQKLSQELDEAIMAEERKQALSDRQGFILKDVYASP

T2: forkhead box protein M1 (FOXM1) (human) (UniProt Q08050)
T2 sequence: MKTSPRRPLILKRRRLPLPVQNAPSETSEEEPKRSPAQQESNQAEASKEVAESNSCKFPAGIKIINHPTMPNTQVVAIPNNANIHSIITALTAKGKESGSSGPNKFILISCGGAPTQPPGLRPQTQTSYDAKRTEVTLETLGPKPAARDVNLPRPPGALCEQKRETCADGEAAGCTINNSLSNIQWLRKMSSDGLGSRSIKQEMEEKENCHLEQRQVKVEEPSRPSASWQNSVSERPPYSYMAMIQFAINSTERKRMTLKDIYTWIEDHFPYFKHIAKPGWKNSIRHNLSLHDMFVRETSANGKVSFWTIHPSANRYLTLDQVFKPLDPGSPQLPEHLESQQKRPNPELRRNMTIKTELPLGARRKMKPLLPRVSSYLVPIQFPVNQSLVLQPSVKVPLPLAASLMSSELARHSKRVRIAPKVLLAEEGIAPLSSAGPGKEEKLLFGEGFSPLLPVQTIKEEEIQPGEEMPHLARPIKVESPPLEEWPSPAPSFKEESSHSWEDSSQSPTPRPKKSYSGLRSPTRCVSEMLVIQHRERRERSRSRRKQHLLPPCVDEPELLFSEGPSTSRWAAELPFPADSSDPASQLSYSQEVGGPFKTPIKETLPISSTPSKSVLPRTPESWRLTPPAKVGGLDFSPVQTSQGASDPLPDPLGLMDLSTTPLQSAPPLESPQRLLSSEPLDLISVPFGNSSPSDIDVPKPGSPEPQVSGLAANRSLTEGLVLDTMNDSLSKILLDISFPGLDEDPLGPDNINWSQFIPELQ

B1: forkhead box protein M1 (FOXM1) (protein, UniProt Q08050 1-763)
chain: T2 sequence
B2: family with sequence similarity 64, member A (FAM64A) (protein, UniProt Q9BSJ6 1-248)
chain: T1 sequence

Assays:
[1] = target: T1, family with sequence similarity 64, member A (FAM64A) (human); assay: co-IP; HNSCC cells lysed in RIPA buffer at 4 °C; supernatants incubated with primary antibodies overnight at 4 °C, then with protein A/G magnetic beads for 8 h; western blotting; done in both directions
[2] = target: T2, forkhead box protein M1 (FOXM1) (human); assay: as above

| Binder | binding [1] | binding [2] |
| --- | --- | --- |
| B1 | binds | – |
| B2 | – | binds |

Source: paper PMC9091245
